Data as given in US11970551 (dated 2024).
The star is where a group is joined. Trt = c1ccc(C(c2ccccc2)(c2ccccc2)*)cc1; Fmoc = O=C(OCC1c2ccccc2-c2ccccc21)*; OtBu = CC(C)(C)O*; For = O=C*

Key:
[1] = general procedure: solution-phase peptide synthesis; EDC.HCl/HOBt.H2O/DIPEA; DCC/HOAt
[2] = solution-phase peptide synthesis; EDC.HCl/HOBt.H2O/DIPEA; DCC/HOAt; conditions: late stage modification step, global deprotection of SEQ ID NO 15

Boc-Met-Asp(OtBu)-Gly-Cys(ψ^Me,MePro)-Glu(OtBu)-Leu-OtBu
crude LC-MS purity ([1]; coupling step): 84% (LCMS) | step yield ([1]; coupling step, based on a purity of 84%): 76% yield

Cbz-Gly-Cys(ψMe,MePro)-Glu(OtBu)-Leu-OtBu
crude LC-MS purity ([1]; coupling step): 76 area % | crude purity (method not given) ([1]; coupling step): 70% | step yield ([1]; coupling step, based on 70% purity): 58% yield

Fmoc-MD(OtBu)GC(Trt)E(OtBu)L-OtBu
final purity (method not given) ([1]; purification step): 95.4% | step yield ([1]; purification step): 78%

For-MD(OtBu)GC(Trt)E(OtBu)L-OtBu
purity (crude or final not stated) ([1]; late stage modification step): between 67.5-77.2% | step yield ([1]; late stage modification step): 75-83%

For-MDGCEL-OH
step yield [2]: 97% | final purity (method not given) ([1]; late stage modification step): 97.6% | step yield ([1]; late stage modification step): 97% | step yield ([1]; purification step): >90% | final purity (method not given) ([1]; purification step, run 1): app 97% | final purity (method not given) ([1]; purification step, run 2): app. 97%

H-Gly-Cys(ψ^Me,MePro)-Glu(OtBu)-Leu-OtBu
crude LC-MS purity ([1]; late stage modification step): 80% purity | step yield ([1]; late stage modification step): 79% yield
